# ± gives the standard deviation. This is a selection; strong and weak results do not stand in their true shares. Many entries were measured with a wide error.
# System: MIWI (PIWIL1) piRISC loaded with piRNA #2 (30 nt)
# Test: pre-steady-state target cleavage rate (min^-1); MIWI and MILI are mouse PIWI proteins and EfPiwi is from a freshwater sponge; tags in brackets are library labels; higher = faster piRNA-guided slicing of the target
# Conditions: guide: piRNA #2 5'p-UUAGGUAACCCAGUAGAUCCAGAGGAAUUC; auxiliary factor: 500 nM mouse GTSF1
# In short: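 A transcribed, DNA-blocked target RNA library […] was incubated at 33 °C for 0–8 or 0–960 min with 1 nM active affinity-purified piRISC carrying one synthetic guide, in HEPES–potassium acetate buffer with or without 500 nM GTSF1 partner protein. Uncleaved targets were then sequenced and normalised to depth and to weakly complementary targets. Data from three trials were pooled, with k3 capped at 0.0001 min^-1, and a burst-and-steady-state fit yielded the pre-steady-state cleavage rate.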
# 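Also: 1 nM active piRISC with 0.1 nM target library at 33 °C single turnover.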
row,Sequence,pre-steady-state target cleavage rate
1,CUUAAGGAGAGGAUCUACUGCGGUUACCUAA,0.00054 ± 0.0075
2,CUUAAGGAGACCAUCUUACUGGGUUACCUAA,0.00126 ± 0.0096
3,CUUAAGGAGUGGAUCUACGGGUUACCUAA,0.000697 ± 0.014
4,CUUAAGGAGACGAUCUACUGGGUUCCUAA,0.00146 ± 0.0044
5,CUUAAGGAGACGACUACUGGGUUACCUAA,0.00153 ± 0.0076
6,CUUAAGGAGAGGUUCUACUGGGUAACCUAA,0.00187 ± 0.0047
7,GAAUUCCUCAGGAUCUACUGGGUUACGUAA,0.738 ± 0.062
8,CUUAAGGACUGGAUCUACGGGUUACCUAA,0.000298 ± 0.032
9,CUUAAGGAGUGGAUCUUGUGGGUUACCUAA,0.000121 ± 0.036
10,CUUAAGGAGACCUAGUACUGCGGUUACCUAA,0.00125 ± 0.0061
11,CUUAAGGACUCGAUCUACUGGCUUACCUAA,0.00689 ± 0.0093
12,GAAUUCCUCUGGAUGUACAGGGUUACCUAA,0.413 ± 0.029
13,CUUAAGGAGUGGUUCUACUGGGUAACCUAA,0.00171 ± 0.012
14,CUUAAGGAGACCAUCUACUGGGCUACCUAA,0.00127 ± 0.008
15,CAAUUCCUCUGGAUCUACUUGGGUUACCUAA,0.00419 ± 0.0046
16,CUUAAGGAGACGAUCUUCUGGGUAACCUAA,0.000953 ± 0.0048
17,CUUAAGGAGACCUAGAUGAGUGGUUACCUAA,0.00141 ± 0.0058
18,CUUAUCCUCUCGAUCUACUGGGUUACCAAA,0.542 ± 0.041
19,CUUAAGGAGACCAUCUACCGGGUUACCUAA,0.00104 ± 0.012
20,CUUAAGGAGACCUAGAUGUCCGUUACCUAA,0.000696 ± 0.01
21,CUUAAGGAGAGGAUGUACUGGGUUACCUAA,0.00307 ± 0.0086
22,CUUAAGGAGAGGAUCUCCUGGGUUACCUAA,0.00203 ± 0.0071
23,CUUAAGGAGUGGAUCUAGUGGCUUACCUAA,0.000372 ± 0.027

row,Sequence,pre-steady-state target cleavage rate
1,CUUAAGGAGACCUAGUACUGGGGUACCUAA,0.000231 ± 0.019
2,CUAUUCCUCUAGAUCUACUGGGUUACCUAA,0.67 ± 0.042
3,CUUAAGGAGACCAUCUACUGGGAUUCCUAA,0.00104 ± 0.0066
4,CUUAAGGACGGAUCUACUGGGUUACCUAA,0.0543 ± 0.039
5,CAAUUCCUCGGAUCUACUGGGUUACCUAA,0.47 ± 0.087
6,CUUAAGGAGACCAUCUACUGGGUUCACCUAA,0.00131 ± 0.0062
7,CUUAAGGACUGGAUCUUCUGGGUUUCCUAA,0.00181 ± 0.016
8,CUUAAGGAGACCAUCUACUGGCUUACCUAA,0.0019 ± 0.0031
9,CUUAAGGAGACCUAGUACUGGGUUAACCUAA,0.00083 ± 0.007
10,CUUAAGGACUCGUUCUACUGGGUUACCUAA,0.00107 ± 0.021
11,CUUAAGGAGACGAUCUACUGGGUUUCGUAA,0.000919 ± 0.008
12,CUUAAGGAGACCAUCUACUCGGGUUACCUAA,0.0014 ± 0.0073
13,CUUAAGGAGAGGAUCAACUGGGUUUCCUAA,0.000509 ± 0.01
14,CUUAACCUCUGGAUCUACUGGGUACCUAA,0.000309 ± 0.017
15,CUUAAGGAGACGAUCUACUGGGGUUACCUAA,0.000635 ± 0.0086
16,CUUAAGGAGACCAUCUACUGGGAUAGCUAA,0.000185 ± 0.024
17,CUUAAGGAGACCUAGUACUCGGGUUACCUAA,0.000705 ± 0.011
18,GAAUUCCUCUCGAUCUACUGGGUUACCAAA,0.564 ± 0.067
19,CUUAAGGAGACGAUCACUGGGUUACCUAA,0.000948 ± 0.0088
20,CUUAAGGAGACCUACUACUGAGGUUACCUAA,0.00184 ± 0.0035
21,GAAUUCCUCUGGAUCUACUCCCUUACCUAA,0.00147 ± 0.0076
22,CUUAAGGAGACCUAGUACUGGGUAACCAAA,0.000197 ± 0.032
23,CUUAAGGAGACCAUCUACUGGGUUUCGUAA,0.000739 ± 0.013

row,Sequence,pre-steady-state target cleavage rate
1,CUUAAGGAGACCAUCUACUGGGUCACCUAA,0.000569 ± 0.011
2,CUUAAGGAGACCUACUACUGUGGUUACCUAA,0.000752 ± 0.012
3,CUUAAGGAGACCUAGAUCUGGGAAACCUAA,0.000146 ± 0.044
4,CUUAAGGAGACCUUCUACUGGGUUAACCUAA,0.00244 ± 0.0054
5,CUUAAGGAGACCUAGAUGAGGGUUACGCUAA,0.00035 ± 0.016
6,CUUAAGGAGACCUAGAACAGCGUUACCUAA,0.000466 ± 0.018
7,CUUAAGGAGACCAACUACUGGGAUACCUAA,0.00047 ± 0.011
8,CUUAAGGAGACCUACUACUGGCAAACCUAA,0.000186 ± 0.016
9,CUUAAGGAGAGGAUCAACUGGGUUACCUUA,0.000513 ± 0.011
10,CUUAAGGAGACCAUCUACUGGGUUAGCUUA,0.000645 ± 0.011
11,CUUAAGGUCUGGAUCUACUGGCGUUACCUAA,0.00112 ± 0.011
12,CUUAAGGAGACCUAGAUGACGGUUACCUAU [g2:g10:cont:t1U],0.00075 ± 0.01
13,CUUAAGGAGACCUAGAAGACGGUUACCUAA,0.000467 ± 0.0092
14,CUUAUCCUCUGGAUCUACUCGGGUUACCUAA,0.00145 ± 0.0073
15,CUUAAGGAGACGAUCUACAGGGUAACCUAA,0.00108 ± 0.0073
16,CUUAAGGAGACCAUCUAGUGGGUUACCAAA,0.00173 ± 0.0056
17,CUUAUCCUCUGGAUCUAGACGGUUACCUAA,0.000289 ± 0.021
18,CUUAACCUCUGGAUCUACUGGUUACCUAA,0.0564 ± 0.012
19,CUUAAGGAGACCUACUACUGGGUUACCUUAA,0.000668 ± 0.0093
20,CUUAAGGAGACCUAGAUGACGUUACCUAA,0.00133 ± 0.004
21,CUUAAGGUCUGGUUCUAGUGGGUUACCUAA,0.0776 ± 0.014
22,CUUAAGGAGACCUACUACUGGGUUGCCUAA,0.00172 ± 0.0067
23,CUUAAGGAGACCAUGUACUGGGUAACCUAA,0.000393 ± 0.021

# Given as tab-separated lines: entries from further up.
row	Sequence	pre-steady-state target cleavage rate
5	CUUAAGGAGACCUAGAUGAGGGUUACGCUAA	0.00035 ± 0.016
6	CUUAAGGAGACCUAGAACAGCGUUACCUAA	0.000466 ± 0.018
7	CUUAAGGAGACCAACUACUGGGAUACCUAA	0.00047 ± 0.011
20	CUUAAGGAGACCUAGAUGACGUUACCUAA	0.00133 ± 0.004
21	CUUAAGGUCUGGUUCUAGUGGGUUACCUAA	0.0776 ± 0.014

# Continued.

row,Sequence,pre-steady-state target cleavage rate
1,CUUAAGGAGACGAUCUACUGCGUUACCUUA,0.000621 ± 0.011
2,CUUAAGCUCUGGAUCUACUGGCGUUACCUAA,0.00136 ± 0.01
3,CUUAAGGAGACCUUCUACUGGGAUACCUAA,0.00102 ± 0.0066
4,CUUAAGGAGACGAUCUACUGGGUUACCAUA,0.000909 ± 0.0094
5,CUUAAGGAGUGGAUCUUGAGGGUUACCUAA,0.000894 ± 0.0095
6,CUUAAGGACUGGAUCUUCAGGGUUACCUAA,0.00587 ± 0.006
7,CUUAAGGUCUGGAUCUACUCGGAUACCUAA,0.00325 ± 0.011
8,CUUAAGGAGACCUAGAUCUGGGUUACCUAA,0.00103 ± 0.0056
9,CUUAAGGAGACGAUCUACUGCCUUACCUAA,0.000794 ± 0.0056
10,CUUAAGGAGAGGAUCUACUGGCAUACCUAA,0.000172 ± 0.03
11,CUUAAGGAGACCUUCUAGCUGGGUUACCUAA,0.00168 ± 0.0053
12,CUUAAGGAGACGAUCUACAGGGUUACCUAA,0.00225 ± 0.0044
13,CUUAAGGUCUGGAUCUACUGGGUUCCUAA,0.00124 ± 0.0069
14,CUUAUCCUCUGGAUCUACUGGGUUACCAUA,0.497 ± 0.069
15,CUUAAGGAGACCUAGUACUGGGUUCCUAA,0.000141 ± 0.042
16,CUUAUCCUCUGGAUCUACUGGGAUUCCUAA,0.103 ± 0.04
17,CUUAAGGACUCGAUCUUCUGGGUUACCUAA,0.000382 ± 0.037
18,CUUAAGGUCUGGAUCUUACUGGGUUACCUAA,0.00149 ± 0.0043
19,CUUAAGGAGACCUACUACGGGGUUACCUAA,0.000812 ± 0.014
20,GAAUUCCUCUGGAUCUACUGGGUUACCAUAA,0.383 ± 0.049
21,CUUAAGGAGACCUUCUACUGGGUUACCUAU [g2:g17:cont:t1U],0.00321 ± 0.0042
22,CUAUUCCUCUGGAUCUCUGGGUUACCUAA,0.00302 ± 0.0051
